Source: publication PMC8348266, “Intrinsically disordered electronegative clusters improve stability and binding specificity of RNA-binding proteins”
Protein sequences can lack the tags named with them. For part of these data: The exact form of at least one protein or probe is not confirmed. For part of these data: At least one verdict was read from the data and is not stated in words by the source.

How the values were obtained:
[1] = biological target: T1, SRSF3 RRM WT (human) (UniProt P84103); test: fluorescence polarization; settings: pH 5.5, KD only in figure, Nop15 FP: 10 nM RNA/DNA, 20 mM Tris-HCl pH 7.5, 0.02% Tween 20, 150 or 50 mM NaCl, SRSF3 FP: 10 mM MES pH 5.5, 50 mM Arg/Glu, 0.1 mM TCEP, recombinant protein, residues 1-84, protein details: N-terminal SUMO tag cleaved with Ulp1, label: 5' fluorescein
T1 sequence (looked up): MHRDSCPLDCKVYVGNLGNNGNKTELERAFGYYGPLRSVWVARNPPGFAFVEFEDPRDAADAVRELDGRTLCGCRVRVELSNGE

[2] = biological target: T2, Nop15 WT (1xENC) (Saccharomyces cerevisiae) (UniProt P53927); test: fluorescence polarization; settings: 50 mM NaCl, weak binding detectable, no plateau, Nop15 FP: 10 nM RNA/DNA, 20 mM Tris-HCl pH 7.5, 0.02% Tween 20, 150 or 50 mM NaCl, SRSF3 FP: 10 mM MES pH 5.5, 50 mM Arg/Glu, 0.1 mM TCEP, recombinant protein, residues 40-191, protein details: N-terminal SUMO tag (pSMT3) cleaved with Ulp1, label: 5' fluorescein
T2 sequence (looked up): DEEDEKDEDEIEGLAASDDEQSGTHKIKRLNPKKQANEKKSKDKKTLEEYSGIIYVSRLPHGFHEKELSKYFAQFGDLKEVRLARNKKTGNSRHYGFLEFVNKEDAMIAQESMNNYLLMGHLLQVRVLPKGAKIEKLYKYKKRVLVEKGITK

## ACAUC
[1]
  binding result: binds

## AGAGAGAGA [nonspecific ssDNA]
[2]; single-stranded DNA
  Kd: > 8 µM

## CAUCA
[1]
  binding result: binds

## CUUCA
[1]
  binding result: binds

## UCAAC
[1]
  binding result: binds

## UUCAGAGCA [nonspecific ssRNA]
[2]
  Kd: > 8 µM
